PubChem BioAssay AID1259308 | NCATS | 2017
This is an unselected part of about 59,000 reagents tested. Over the whole deposit, about 1,510 (2.6%) got an active call. 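Calls use total luciferase alone and ignore viability, so some active siRNAs may act by altering cell number.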 Entries without a mark were called inactive. The numbers tell different reagents against one gene apart. Not all columns of the deposit are shown.

- Aim: 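Candidate targets for better recombinant protein yield in mammalian cells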 (primary screen)
- Cell system: human HEK293 embryonic kidney cells stably expressing firefly luciferase (HEK-CMV-Luc2-Hygro)
- Reagent: single siRNA against human genes, 0.8 pmol siRNA per well
- Time to read-out: 72 h
- Detection: 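Luciferase light (ONE-Glo) measured on one replicate plate set and viability (CellTiter-Glo) on the other, scaled to a negative control siRNA, with robust z-scores and luciferase per cell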
- Direction: total luciferase, z-score: higher = more reporter protein produced
- Rule for the call: 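Active when the median/MAD z-score for overall luciferase is greater than 3; a gene was taken forward for validation with new siRNAs if at least two of its three siRNAs passed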
- Meaning of the calls: active = raised luciferase; inactive = no rise

total luciferase, z-score, by gene and reagent
CCDC91 (coiled-coil domain containing 91): #1 -0.617; #2 4.34 (active); #3 -1.34
MPPED1 (metallophosphoesterase domain containing 1): #1 -0.0379; #2 -0.677; #3 1.23; #4 -0.674; #5 1.15; #6 0.554

Reagents above with an active call:
total luciferase, z-score, by gene and reagent
CCDC91 (coiled-coil domain containing 91): #2 4.34 (active)

More reagents follow.
total luciferase, z-score, by gene and reagent
BMS1P15 (BMS1 pseudogene 15): #1 0.281; #2 -0.241; #3 1.89
TSPAN19 (tetraspanin 19): #1 -0.971; #2 0.346; #3 -2.08
PRSS36 (serine protease 36): #1 -1.82; #2 1.61; #3 -0.399
DAPK1 (death associated protein kinase 1): #1 -1.83; #2 1.85; #3 -0.347
MTSS1 (MTSS I-BAR domain containing 1): #1 -0.37; #2 1.97; #3 -0.595
